# The name of at least one read-out is uncertain.
# System: Pseudomonas aeruginosa (ATCC 15442) biofilms
# Experiment: MBEC test, 24-hour biofilm, one hour biocide challenge;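 note: Peg-grown biofilms exposed to biocide, then regrowth in broth 18 h at 35 °C, turbidity by absorbance at 650 nm, above 0.100 counted as growth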
# Assay type: cell-based
# Conditions: 1 hour contact, blends: total amount of components (1:1 ratio)
smiles,measurement,setting,value
"CCCCCCCCCC[N+](C)(C)CCCCCCCCCC.[Cl-] [DAQ 1010, Didecyldimethyl ammonium chloride]","MBEC, avg.",average of duplicate runs,38 ppm
same,"MBEC, ppm (second of duplicate runs)",,50 ppm
